## Screening data

Data taken from PubChem BioAssay AID504749, deposited by NCATS (2011).

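A panel of P. falciparum strains inside erythrocytes is exposed to compounds for three days, then a DNA-binding dye reports the amount of parasite DNA. Each compound was titrated across a series from about 0.000037 to 29 µM. The number is the fitted AC50, the concentration giving a half-maximal change in signal; a lower value means higher potency, whether the curve shows a decrease or an increase. Calls follow the curve class and fit quality: every row here is inconclusive, covering signal-raising curves and weak, poorly fitted, partial or highest-dose-only inhibition curves.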

Values are in µM. Every entry below has the call inconclusive. These entries are mostly ones the record files as inconclusive; other results of the assay are not listed here. Potencies fitted to partial, single-point or poorly fitting curves are rough. The first word of each remark tells which way the curve ran; it can be opposite to the aim of the assay.

With COC(=O)C1=CCCN(C)C1 [CP260] the assay gave potency 17.78 µM (inhibitor, single point).
With CNC(C)(C)Cc1ccccc1 [CP192] the assay gave potency 8.087 µM (inhibitor, single point).
With CNC(C)(C)Cc1ccccc1 [CP237] the assay gave potency 10 µM (inhibitor, single point).
With Clc1ccc(Cn2c(CN3CCCC3)nc3ccccc32)cc1 [W2] the assay gave potency 2.031 µM (inhibitor, partial curve, poor fit).
With O=C(/C=C/c1ccccc1)OCc1ccccc1 [CP335] the assay gave potency 3.381 µM (inhibitor, single point).
With Cc1nnc(NS(=O)(=O)c2ccc(N)cc2)s1 [PAD] the assay gave potency 17.78 µM (activator, single point).
With CCCCc1ccc(C(=O)O)nc1 [DIV14] the assay gave potency 0.0027 µM (activator, full curve, poor fit).
With CN(C/C=C/C#CC(C)(C)C)Cc1cccc2ccccc12 [W2] the assay gave potency 13.46 µM (inhibitor, single point).
With CC1(C)OC2CO[C@]3(COS(N)(=O)=O)OC(C)(C)OC3C2O1 (some centres not stated) [7G8] the assay gave potency 17.78 µM (inhibitor, single point).
With CCOC(=O)[C@H](CCc1ccccc1)N[C@@H](C)C(=O)N1[C@H](C(=O)O)C[C@H]2CCC[C@@H]21 [DIV30] the assay gave potency 0.0379 µM (activator, partial curve, poor fit).
With CCOC(=O)[C@H](CCc1ccccc1)N[C@@H](C)C(=O)N1[C@H](C(=O)O)C[C@H]2CCC[C@@H]21 [CP329] the assay gave potency 0.0005 µM (activator).
With O=P(O)(O)C(O)(Cc1cccnc1)P(=O)(O)O [DIV30] the assay gave potency 16.94 µM (inhibitor, single point).
With NS(=O)(=O)c1ccc(NC(=O)CCC(=O)O)cc1 [CP291] the assay gave potency 0.0239 µM (inhibitor, partial curve, poor fit).
With COC(=O)c1ccccc1C(=O)c1ccc(OCCN2CCCCC2)cc1 [DIV14] the assay gave potency 16.94 µM (inhibitor, single point).
With COC(=O)c1ccccc1C(=O)c1ccc(OCCN2CCCCC2)cc1 [Dd2] the assay gave potency 7.943 µM (inhibitor, partial curve).
With CC(=O)Oc1cccc(C(=O)O)c1OC(C)=O [TAB109] the assay gave potency 3.162 µM (inhibitor, single point).
With OC[C@@H](O)[C@@H](O)[C@H](O)[C@H](O)CO [CP335] the assay gave potency 4.256 µM (inhibitor, single point).
With IC(I)I [CP192] the assay gave potency 19.01 µM (inhibitor, single point).
With IC(I)I [CP291] the assay gave potency 21.33 µM (inhibitor, single point).
With IC(I)I [CP215] the assay gave potency 19.01 µM (inhibitor, single point).
With IC(I)I [DIV14] the assay gave potency 19.01 µM (inhibitor, single point).
With IC(I)I [CP305] the assay gave potency 0.0048 µM (activator, full curve, poor fit).
With CCCCCCOC(=O)c1cccnc1 [CP266] the assay gave potency 21.33 µM (inhibitor, single point).
With COc1cc2nc(N(C)CCCNC(=O)[C@@H]3CCCO3)nc(N)c2cc1OC [CP215] the assay gave potency 7.208 µM (inhibitor, single point).
With COc1cc2nc(N(C)CCCNC(=O)[C@@H]3CCCO3)nc(N)c2cc1OC [CP266] the assay gave potency 0.0081 µM (inhibitor, full curve, poor fit).
With CCCCCCCCCCCCCCCC(=O)OC(C)C [FAB9] the assay gave potency 3.981 µM (inhibitor, single point).
With CCCCC(CC)CN=C(N)NC(N)=NCCCCCCN=C(N)NC(N)=NCC(CC)CCCC (configuration not stated) [CP203] the assay gave potency 1.901 µM (inhibitor, full curve, poor fit).

Once more, the final 3:

- COc1cc2nc(N(C)CCCNC(=O)[C@@H]3CCCO3)nc(N)c2cc1OC [CP266] : potency 0.0081 µM (inhibitor, full curve, poor fit)
- CCCCCCCCCCCCCCCC(=O)OC(C)C [FAB9] : potency 3.981 µM (inhibitor, single point)
- CCCCC(CC)CN=C(N)NC(N)=NCCCCCCN=C(N)NC(N)=NCC(CC)CCCC (configuration not stated) [CP203] : potency 1.901 µM (inhibitor, full curve, poor fit)